Results deposited as PubChem BioAssay AID1259308 (NCATS, 2017)
Screen: 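Genes whose loss raises luciferase production in HEK293 cells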 (primary screen). Cells: human HEK293 embryonic kidney cells stably expressing firefly luciferase (HEK-CMV-Luc2-Hygro). Reagent: single siRNA against human genes, 0.8 pmol siRNA per well. Duration: 72 h. Detection: 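Reporter luminescence and viable-cell signal on separate replicate plates, given as percent of non-targeting control and median/MAD z-scores, plus per-cell luciferase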. Scale: total luciferase, z-score and total luciferase, % of control: higher = more reporter protein produced; luciferase per cell, z-score: higher = more reporter output per viable cell; viable cells, % of control: higher = more viable cells. Call rule: 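An siRNA counts as active if its total luciferase robust z-score exceeds 3; genes with two or more such siRNAs out of three were retested with fresh siRNAs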. Meaning of the calls: active = raised luciferase; inactive = no rise.
The whole screen tested about 59,000 reagents; shown is a random part of them. About 1,510 of all reagents (2.6%) were called active. 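Calls use total luciferase alone and ignore viability, so some active siRNAs may act by altering cell number.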 Reagents against one gene are numbered here.

| gene | reagent no. | total luciferase, z-score | total luciferase, % of control | luciferase per cell, z-score | viable cells, % of control | call |
| --- | --- | --- | --- | --- | --- | --- |
| CCDC93 | 1 | -0.0676 | 80.5 | 0.161 | 86.3 | inactive |
| CCDC93 | 2 | 0.514 | 92.1 | 0.62 | 87.4 | inactive |
| CCDC93 | 3 | 0.59 | 93.6 | 0.199 | 99.3 | inactive |
| LINC00997 | 1 | 0.371 | 89.3 | 1.59 | 65.6 | inactive |
| LINC00997 | 2 | -0.362 | 74.7 | -0.892 | 106 | inactive |
| LINC00997 | 3 | -0.842 | 65.1 | -0.481 | 82.6 | inactive |
| PLA2G10 | 1 | -1.29 | 56.3 | -0.777 | 77.1 | inactive |
| PLA2G10 | 2 | 2.08 | 123 | 0.655 | 116 | inactive |
| PLA2G10 | 3 | 0.122 | 84.3 | -0.32 | 102 | inactive |
| CLMB | 1 | -1.08 | 60.3 | 1.74 | 42.6 | inactive |
| CLMB | 2 | -0.59 | 70.1 | 0.173 | 74.9 | inactive |
| CLMB | 3 | 0.214 | 86.1 | -0.0185 | 96.7 | inactive |

Individual results from the list.
Value of CCDC93 #3 under “luciferase per cell, z-score”: 0.199
CLMB #1, total luciferase, z-score = -1.08

Next entries follow:
| gene | reagent no. | total luciferase, z-score | total luciferase, % of control | luciferase per cell, z-score | viable cells, % of control | call |
| --- | --- | --- | --- | --- | --- | --- |
| CDK11B | 1 | 1.04 | 103 | 2.46 | 59.9 | inactive |
| CDK11B | 2 | 1.51 | 112 | 1.54 | 83.4 | inactive |
| CDK11B | 3 | -0.403 | 73.9 | 0.418 | 73.9 | inactive |
| SENP5 | 1 | -0.793 | 66.1 | -0.864 | 92.8 | inactive |
| SENP5 | 2 | -0.298 | 76 | -1.15 | 115 | inactive |
| SENP5 | 3 | 0.223 | 86.3 | -0.771 | 118 | inactive |
| RBP1 | 1 | -1.8 | 46.1 | -2.98 | 113 | inactive |
| RBP1 | 2 | 0.593 | 93.7 | -0.00784 | 105 | inactive |
| RBP1 | 3 | -0.351 | 74.9 | -0.481 | 95 | inactive |
| CSGALNACT2 | 1 | -0.35 | 74.9 | -0.712 | 101 | inactive |
| CSGALNACT2 | 2 | -0.392 | 74.1 | -0.511 | 94.7 | inactive |
| CSGALNACT2 | 3 | 0.16 | 85.1 | -0.0882 | 97.3 | inactive |
